# Laboratory results reported in patent US6599914B2, “Inhibition of cytokine generation” (Schering Corporation, priority 2001, dated 2003).
# Entries after “also recorded” stand apart in the source; their conditions may differ.
# How the values were obtained:
# human basophils [1] = assay: cells; settings: read-out: inhibition of cytokine (IL-4 and IL-13) secretion
# IL-4 mRNA [2] = assay: cells; settings: Homo sapiens, 2 h, read-out: inhibition of IL-4 protein secretion in the same cultures
# human basophils [3] = test system: human basophils
# human basophils [4] = settings: ionomycin 500 ng/ml; 0.1, 1.0 and 10 μM desloratadine
# human basophils [5] = assay: cells; settings: read-out: inhibition of IL-13 at initial plateau
# [6] = test system: human mast and basophilic cell lines; settings: in vitro; cited from earlier work
# human basophils [7] = assay: cells; settings: 18 h, read-out: IC50, IL-3-mediated IL-13 production
# human basophils [8] = settings: inhibition seen between 1 μM and 10 μM
# IL-4 mRNA [9] = settings: desloratadine 10 μM; anti-IgE; 2 h
# human basophils [10] = settings: data not shown
# [11] = anti-IgE, concentrations between 1 μM and 10 μM, 4 h
structure (smiles),measurement,setting,value
Clc1ccc2c(c1)CCc1cccnc1C2=C1CCNCC1 [desloratadine],inhibition at 10 µM,human basophils [1],> 95%
same,inhibition at 10 µM,IL-4 mRNA [2],> 95%
same,inhibition of LTC4 release,human basophils [3]; [11],dose-dependently inhibited
same,inhibition of histamine release,human basophils [3]; [11],dose-dependently inhibited
same,"inhibition of IL-4 secretion, basophils purified to greater than 99%","human basophils [3]; anti-IgE, pure basophils",also evident
same,"inhibition of histamine release, pure basophils","human basophils [3]; anti-IgE, pure basophils",inhibited
same,times more potent at inhibiting IL-4 and IL-13 secretion than histamine and LTC4 release,"human basophils [3]; induced by anti-IgE, same culture supernatants",6-7 fold
same,inhibition of IL-4 secreted in response to ionomycin,human basophils [4],remarkably inhibited; also recorded: quite effective
same,inhibition at 1 µM,human basophils [5],50 to 70%
same,inhibition of release of IL-6,[6],up to 40%
same,inhibition of release of IL-8,[6],up to 50%
same,IC50,human basophils [7],~2000 nM
same,inhibition of IL-13 induced by PMA,human basophils [8],inhibited
same,inhibition of histamine secreted into the supernatants of the mRNA cultures,IL-4 mRNA [9],inhibited
same,inhibition of LTC4 made in response to FMLP stimulation,human basophils [10]; FMLP,not inhibited
same,inhibition of histamine made in response to FMLP stimulation,human basophils [10]; FMLP,not inhibited
same,inhibition of histamine and/or LTC4 released with IgE-independent stimuli,"human basophils [10]; ionomycin, fmlp, phorbol ester, any concentration tested",no evidence
